Measurements published in PMC5064014.
These are yes or no findings as the source states them, for the method shown. In cells and extracts the contact can be indirect. Here binding means that the protein was enriched with, or labelled near, the bait; the list need not be complete.

The chains behind the UniProt entries cited, without tags or fusion partners.
UniProt Q8N5F7: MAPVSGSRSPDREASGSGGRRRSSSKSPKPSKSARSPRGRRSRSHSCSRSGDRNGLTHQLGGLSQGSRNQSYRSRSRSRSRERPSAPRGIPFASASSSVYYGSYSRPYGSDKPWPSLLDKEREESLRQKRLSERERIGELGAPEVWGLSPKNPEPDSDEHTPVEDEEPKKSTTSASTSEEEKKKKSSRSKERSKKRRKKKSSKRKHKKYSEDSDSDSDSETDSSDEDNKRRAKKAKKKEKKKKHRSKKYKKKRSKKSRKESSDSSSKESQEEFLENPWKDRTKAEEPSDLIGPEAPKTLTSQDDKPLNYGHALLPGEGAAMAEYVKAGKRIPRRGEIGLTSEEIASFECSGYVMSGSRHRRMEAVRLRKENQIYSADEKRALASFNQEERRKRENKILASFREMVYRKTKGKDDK
UniProt O43683: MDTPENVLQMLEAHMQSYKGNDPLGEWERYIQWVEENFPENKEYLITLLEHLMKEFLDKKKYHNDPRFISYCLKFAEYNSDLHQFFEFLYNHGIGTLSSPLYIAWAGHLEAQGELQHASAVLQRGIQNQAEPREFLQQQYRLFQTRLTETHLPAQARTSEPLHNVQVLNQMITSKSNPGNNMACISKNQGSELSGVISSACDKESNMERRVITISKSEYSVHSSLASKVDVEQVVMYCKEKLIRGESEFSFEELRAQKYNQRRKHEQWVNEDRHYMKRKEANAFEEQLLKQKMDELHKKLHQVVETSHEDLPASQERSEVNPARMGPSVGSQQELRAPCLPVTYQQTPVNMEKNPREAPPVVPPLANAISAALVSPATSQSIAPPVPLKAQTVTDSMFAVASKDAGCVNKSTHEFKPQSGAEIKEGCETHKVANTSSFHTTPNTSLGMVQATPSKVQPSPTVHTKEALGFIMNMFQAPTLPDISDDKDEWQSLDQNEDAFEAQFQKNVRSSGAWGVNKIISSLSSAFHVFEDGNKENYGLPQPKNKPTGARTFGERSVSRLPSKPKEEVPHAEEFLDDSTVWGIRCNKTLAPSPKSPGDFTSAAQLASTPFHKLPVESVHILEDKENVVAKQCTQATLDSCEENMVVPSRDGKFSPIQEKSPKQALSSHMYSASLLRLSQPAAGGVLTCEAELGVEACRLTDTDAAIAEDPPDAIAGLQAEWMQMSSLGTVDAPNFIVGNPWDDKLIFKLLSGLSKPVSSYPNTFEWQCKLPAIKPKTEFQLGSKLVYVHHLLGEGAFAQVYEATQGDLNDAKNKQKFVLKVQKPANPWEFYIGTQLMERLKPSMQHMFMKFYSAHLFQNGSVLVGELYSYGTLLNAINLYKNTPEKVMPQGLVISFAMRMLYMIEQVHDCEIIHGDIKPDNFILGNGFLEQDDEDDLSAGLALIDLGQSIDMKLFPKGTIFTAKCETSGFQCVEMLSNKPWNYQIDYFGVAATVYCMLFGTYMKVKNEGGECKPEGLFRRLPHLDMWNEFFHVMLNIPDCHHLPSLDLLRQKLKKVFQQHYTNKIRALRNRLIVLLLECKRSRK
UniProt O43684: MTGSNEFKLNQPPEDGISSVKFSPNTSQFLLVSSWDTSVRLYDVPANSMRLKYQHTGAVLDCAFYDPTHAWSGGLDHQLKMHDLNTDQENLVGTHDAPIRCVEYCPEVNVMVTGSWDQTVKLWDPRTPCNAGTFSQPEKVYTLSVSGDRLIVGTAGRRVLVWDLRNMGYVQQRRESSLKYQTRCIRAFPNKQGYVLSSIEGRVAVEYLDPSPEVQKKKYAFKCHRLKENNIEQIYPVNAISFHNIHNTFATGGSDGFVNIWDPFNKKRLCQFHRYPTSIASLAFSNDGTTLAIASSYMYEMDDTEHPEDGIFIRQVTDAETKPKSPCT
UniProt O60566: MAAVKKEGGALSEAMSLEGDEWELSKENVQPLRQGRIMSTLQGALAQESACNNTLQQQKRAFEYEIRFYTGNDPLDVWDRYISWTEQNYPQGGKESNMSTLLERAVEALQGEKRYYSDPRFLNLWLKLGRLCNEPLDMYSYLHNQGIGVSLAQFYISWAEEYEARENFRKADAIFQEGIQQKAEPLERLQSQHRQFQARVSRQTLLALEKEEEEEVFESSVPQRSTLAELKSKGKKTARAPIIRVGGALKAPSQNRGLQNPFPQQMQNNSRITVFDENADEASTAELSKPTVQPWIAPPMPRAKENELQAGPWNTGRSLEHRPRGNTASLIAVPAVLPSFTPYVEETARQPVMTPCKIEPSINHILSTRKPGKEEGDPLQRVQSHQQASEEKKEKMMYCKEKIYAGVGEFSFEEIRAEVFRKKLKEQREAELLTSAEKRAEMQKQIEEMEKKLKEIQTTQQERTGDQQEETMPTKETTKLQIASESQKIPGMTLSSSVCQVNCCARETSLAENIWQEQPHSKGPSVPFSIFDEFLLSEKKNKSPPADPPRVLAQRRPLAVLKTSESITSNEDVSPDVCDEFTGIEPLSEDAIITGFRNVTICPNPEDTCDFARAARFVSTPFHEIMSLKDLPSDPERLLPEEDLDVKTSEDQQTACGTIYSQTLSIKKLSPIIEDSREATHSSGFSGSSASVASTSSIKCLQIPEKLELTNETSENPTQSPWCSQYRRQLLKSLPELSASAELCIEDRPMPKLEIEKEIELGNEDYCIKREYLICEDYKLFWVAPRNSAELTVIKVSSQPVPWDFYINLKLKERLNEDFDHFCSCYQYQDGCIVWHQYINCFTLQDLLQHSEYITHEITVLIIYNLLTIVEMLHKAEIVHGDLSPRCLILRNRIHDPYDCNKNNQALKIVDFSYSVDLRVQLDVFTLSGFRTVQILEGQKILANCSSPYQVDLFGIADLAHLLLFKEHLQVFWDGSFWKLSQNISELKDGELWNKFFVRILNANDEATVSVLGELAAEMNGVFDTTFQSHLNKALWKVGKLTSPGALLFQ

biological target: Flag-NKAP (wild type) (human) (UniProt Q8N5F7); assay: affinity purification with mass spectrometry; lysates of prometaphase HeLa cells stably expressing Flag-vector/Flag-NKAP; Flag immunocomplex, gel bands digested and analysed by mass spectrometry

Row | Substance | binding
1 | Bub1 (endogenous, HeLa) (from UniProt O43683 1-1085) | binds
2 | Bub3 (endogenous, HeLa) (from UniProt O43684 1-328) | binds
3 | BubR1 (endogenous, HeLa) (from UniProt O60566 1-1050) | binds
